The record followed here is patent publication US20190265250A1 (CORNELL UNIVERSITY, published 2019).

Residue numbers refer to the chain shown, from its start. Numbers in names are those of the source.

In this assay the target is T1, HA-Ube2N (human, UniProt P61088 1-152).
T1 construct: Co-expressed in HEK293T cells with the Halo-(FLAG)-Ube2V2 constructs; also called ubiquitin-conjugating enzyme E2N
T1 sequence: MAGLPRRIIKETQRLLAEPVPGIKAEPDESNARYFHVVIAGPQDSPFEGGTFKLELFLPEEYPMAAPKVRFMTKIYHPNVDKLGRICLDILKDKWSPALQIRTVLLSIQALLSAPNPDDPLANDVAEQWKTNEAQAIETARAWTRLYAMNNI
Briefly: co-IP with anti-FLAG resin from HEK293T lysate, western blot (FIGS. 8A-8B). For orientation: Immunoblotting shows a protein as a band on a membrane.

B1: wt-Halo-(FLAG)-Ube2V2 (human Halo-TEV-Flag-Ube2V2-wt) (other)
chain: AVSTGVKVPRNFRLLEELEEGQKGVGDGTVSWGLEDDEDMTLTRWTGMIIGPPRTNYENRIYSLKVECGPKYPEAPPSVRFVTKINMNGINNSSGMVDARSIPVLAKWQNSYSIKVVLQELRRLMMSKENMKLPQPPEGQTYNN
notes: Ectopically expressed in HEK293T cells and immunoprecipitated with anti-FLAG resin; also called Halo-Ube2V2; HaloTagged-wt-Ube2V2; not shown: N-terminal HaloTag (pFN21a vector); linker with TEV cleavage site and FLAG tag
Take B1: the binding result is “binds”.

B2: C69S-Halo-(FLAG)-Ube2V2 (Halo-TEV-Flag-Ube2V2-C69S) (other)
chain: B1 chain with C68S
notes: Ectopically expressed in HEK293T cells and immunoprecipitated with anti-FLAG resin; also called C69S-mutant; C69S-hypomorph; not shown: N-terminal HaloTag (pFN21a vector); linker with TEV cleavage site and FLAG tag; only DNA primers are printed
In the case of B2, the binding result is recorded as “binds”.
